Source: paper PMC6430810 (2019)
Numbering of substitutions follows the chain as printed. Names may count otherwise. Results are given in words; binding and its absence hold for the method and conditions named. For part of these data: Binding can be weak; no strength is given. For part of these data: Sequences can lack the tags named with a protein. For part of these data: In cells and extracts the contact can be indirect.

Amino acid sequences for entries named in this document (tags omitted). A change or cut given only in a name is not applied to a line headed by its entry.
UniProt A1L200: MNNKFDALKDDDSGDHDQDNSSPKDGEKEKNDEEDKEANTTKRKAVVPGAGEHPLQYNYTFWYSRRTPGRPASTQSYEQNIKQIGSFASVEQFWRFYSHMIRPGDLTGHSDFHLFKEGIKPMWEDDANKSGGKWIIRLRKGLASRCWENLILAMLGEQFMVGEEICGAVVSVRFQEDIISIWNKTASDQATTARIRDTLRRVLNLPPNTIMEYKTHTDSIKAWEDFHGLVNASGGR
UniProt A0A8M1NGD6: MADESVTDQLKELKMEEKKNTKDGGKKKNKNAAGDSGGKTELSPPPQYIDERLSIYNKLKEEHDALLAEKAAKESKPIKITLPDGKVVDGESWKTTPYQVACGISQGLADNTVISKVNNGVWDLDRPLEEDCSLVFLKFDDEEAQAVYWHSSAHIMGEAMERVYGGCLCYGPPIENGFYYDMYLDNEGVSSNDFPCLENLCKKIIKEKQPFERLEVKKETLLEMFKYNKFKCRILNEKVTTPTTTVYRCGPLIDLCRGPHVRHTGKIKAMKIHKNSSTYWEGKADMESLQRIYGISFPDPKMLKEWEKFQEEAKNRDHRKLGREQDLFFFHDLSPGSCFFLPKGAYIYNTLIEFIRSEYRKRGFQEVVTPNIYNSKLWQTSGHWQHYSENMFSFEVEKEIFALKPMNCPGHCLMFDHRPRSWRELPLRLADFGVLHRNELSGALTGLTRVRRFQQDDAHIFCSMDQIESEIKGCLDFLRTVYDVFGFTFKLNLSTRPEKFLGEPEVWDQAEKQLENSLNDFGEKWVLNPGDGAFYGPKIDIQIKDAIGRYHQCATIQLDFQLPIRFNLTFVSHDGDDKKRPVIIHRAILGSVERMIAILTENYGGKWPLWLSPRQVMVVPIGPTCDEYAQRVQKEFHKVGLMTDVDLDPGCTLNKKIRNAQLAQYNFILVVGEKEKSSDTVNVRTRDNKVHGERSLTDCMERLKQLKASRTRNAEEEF

Tests used:
[1] = molecular target: zebrafish HA-4EHP (HA-z4EHP) (zebrafish) (UniProt A1L200); assay: co-IP; Myc-TRS and HA-4EHP (or other tagged proteins) co-expressed in 293T; anti-Myc or anti-HA immunoprecipitation; tag-specific immunoblot
[2] = molecular target: T1, TRS-VN (human TRS fused to the Venus N-domain) (human) (UniProt P26639); assay: split reporter; BiFC with Venus; pBiFC-VN173-ARSs co-transfected with pBiFC-VC155-eIF4E isoforms in CHO cells; fluorescence and confocal microscopy
T1 sequence: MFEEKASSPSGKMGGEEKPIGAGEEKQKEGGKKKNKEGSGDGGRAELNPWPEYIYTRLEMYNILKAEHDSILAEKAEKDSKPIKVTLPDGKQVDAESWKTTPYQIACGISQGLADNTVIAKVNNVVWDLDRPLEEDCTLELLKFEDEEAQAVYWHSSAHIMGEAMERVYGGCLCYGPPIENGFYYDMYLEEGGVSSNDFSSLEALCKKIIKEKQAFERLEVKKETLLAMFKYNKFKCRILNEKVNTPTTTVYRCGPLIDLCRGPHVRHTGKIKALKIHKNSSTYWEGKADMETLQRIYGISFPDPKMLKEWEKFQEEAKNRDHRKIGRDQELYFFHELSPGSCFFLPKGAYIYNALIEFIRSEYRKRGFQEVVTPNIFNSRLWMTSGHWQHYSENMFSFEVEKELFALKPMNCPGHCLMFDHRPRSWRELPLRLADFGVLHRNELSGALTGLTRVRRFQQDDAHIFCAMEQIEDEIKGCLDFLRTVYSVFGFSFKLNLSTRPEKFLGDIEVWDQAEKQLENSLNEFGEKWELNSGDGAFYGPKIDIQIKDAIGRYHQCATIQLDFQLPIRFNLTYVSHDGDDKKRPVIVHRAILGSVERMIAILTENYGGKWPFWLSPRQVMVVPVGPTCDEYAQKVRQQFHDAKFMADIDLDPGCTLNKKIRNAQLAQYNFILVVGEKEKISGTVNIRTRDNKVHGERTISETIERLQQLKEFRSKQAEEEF

[3] = molecular target: T2, human threonyl-tRNA synthetase, Strep-tagged (TRS-Strep) (human) (UniProt P26639); assay: pull-down; purified TRS-Strep mixed with 4EHP (45-245) at 1:3 or His-GST-PABP at 1:2, 8 h at 4 °C; Strep-Tactin resin; wash 50 mM Tris-HCl pH 7.5, 300 mM NaCl, 1 mM EDTA, 2% NP-40; eluted with desthiobiotin; both purified
T2 sequence: T1 sequence

[4] = molecular target: T3, endogenous human TRS (human (endogenous in WI-26 and 293T)) (UniProt P26639); assay: co-IP; endogenous proteins in WI-26 cell lysates; anti-TRS or anti-4EHP immunoprecipitation; rabbit or mouse IgG as negative control
T3 sequence: T1 sequence

[5] = molecular target: T4, GST-TRS (human, from E. coli) (human) (UniProt P26639); assay: pull-down; purified GST-TRS on glutathione-Sepharose incubated with 293T lysates holding FLAG-tagged proteins, 4 h at 4 °C; PBS with 0.2% NP-40, 5% glycerol, 1 mM EDTA, 1 mM DTT; anti-FLAG immunoblot; only the target purified
T4 sequence: T1 sequence

[6] = molecular target: human 4EHP (residues 45-234) co-expressed with TRS (30-74) for crystallisation (human); assay: crystal structure; 4EHP (45-234)-TRS (30-74) complex; 20% PEG 8000, 0.1 M CHES pH 9.5, 21 °C; without m^7GTP; 1.9 Å; both purified
[7] = molecular target: PABP-FLAG (human poly(A)-binding protein) (human); assay: co-IP; FLAG-tagged protein co-expressed with Strep- or GST-tagged proteins in 293T; anti-FLAG immunoprecipitation; anti-Strep or anti-GST immunoblot
[8] = molecular target: 4EHP-VC (human 4EHP fused to the Venus C-domain) (human); assay: split reporter; BiFC with Venus; pBiFC-VN173-ARSs co-transfected with pBiFC-VC155-eIF4E isoforms in CHO cells; fluorescence and confocal microscopy

Molecule: zebrafish Myc-TRS wild type (zTRS WT) (from UniProt A0A8M1NGD6) (enzyme)
- binding [1]: binds

Molecule: 4EHP-VC (human 4EHP fused to the Venus C-domain)
- binding [2]: binds

Molecule: His-GST-PABP (human, from E. coli)
- binding [3]: binds

Molecule: human 4EHP (residues 45-245) (domain or fragment)
- binding [3]: binds weakly

Molecule: endogenous human PABP
- binding [4]: binds

Molecule: PABP-FLAG (human poly(A)-binding protein)
- binding [5]: binds

B1: human TRS UNE-T region (residues 30-74), tag-free (domain or fragment, UniProt P26639 30-74)
chain: GGKKKNKEGSGDGGRAELNPWPEYIYTRLEMYNILKAEHDSILAE
- binding [6]: binds

B2: TRS-Strep M60K mutant (enzyme, UniProt P26639 1-723)
chain: T1 sequence with M60K
- binding [7]: binds

B3: WRS-VN (tryptophanyl-tRNA synthetase fused to the Venus N-domain) (enzyme, UniProt P23381 1-471)
chain: MPNSEPASLLELFNSIATQGELVRSLKAGNASKDEIDSAVKMLVSLKMSYKAAAGEDYKADCPPGNPAPTSNHGPDATEAEEDFVDPWTVQTSSAKGIDYDKLIVRFGSSKIDKELINRIERATGQRPHHFLRRGIFFSHRDMNQVLDAYENKKPFYLYTGRGPSSEAMHVGHLIPFIFTKWLQDVFNVPLVIQMTDDEKYLWKDLTLDQAYSYAVENAKDIIACGFDINKTFIFSDLDYMGMSSGFYKNVVKIQKHVTFNQVKGIFGFTDSDCIGKISFPAIQAAPSFSNSFPQIFRDRTDIQCLIPCAIDQDPYFRMTRDVAPRIGYPKPALLHSTFFPALQGAQTKMSASDPNSSIFLTDTAKQIKTKVNKHAFSGGRDTIEEHRQFGGNCDVDVSFMYLTFFLEDDDKLEQIRKDYTSGAMLTGELKKALIEVLQPLIAEHQARRKEVTDEIVKEFMTPRKLSFDFQ
- binding [8]: no binding
